Laboratory results: PubChem BioAssay AID2685 (National Center for Advancing Translational Sciences (NCATS), 2010)
The list shows a part of the results. Shown are side measurements of this screen, not its main read-out; they come without a call. Most of these compounds were active or inconclusive in the main read-out, so they are no random draw. Potencies come from curve fits of mixed quality, noted in brackets.

Test: qHTS Assay for Lipid Storage Modulators in Drosophila S3 Cells;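 for cell number change: cells counted by Cell Tracker Red CMTPX staining in the red channel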
Details: BODIPY lipid droplet fluorescence, 18-24 h; for cell number change: measured here: cell count max response, cells fed with added oleic acid
In short: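 Drosophila S3 cells loaded with oleic acid (400 uM, as added) and compounds at several concentrations; lipid droplets imaged by 488-nm laser-scanning cytometry, 500–530 nm intensity and object ratio to cell channel. Percent activity normalized to 20 uM Triacsin C.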

[1] = measured here: lipid fluorescence (Fed channel) AC50, cells fed with added oleic acid
[2] = measured here: cell number channel AC50, cells fed with added oleic acid

Row | SMILES | cell number change | AC50 [1] | AC50 [2]
1 | O=C(Cc1cccs1)NC1(C(=O)NC2CCCC2)CCCCC1 | -4.03% | 29.1 µM [falling, single point] | –
2 | CC1(C)Cc2c(c(=S)nc(-c3ccccc3)n2CCO)CO1 | – | 0.411 µM [falling, full curve] | –
3 | CC(=O)Nc1cccc(NC(=O)COc2ccc3c(c2)CCC3)c1 | -11.7% | 3.26 µM [falling, full curve, poor fit] | –
4 | O=C(CN1CCN(CC(=O)Nc2ccc(F)cc2)CC1)NCC1(N2CCOCC2)CCCCC1 | -31.4% | 0.411 µM [rising, single point] | –
5 | CC(=O)Nc1ccc(NC(=O)CCCNC(=O)c2ccc(Cl)cc2)cc1 | 7.89% | – | –
6 | Cc1cc(C)n(CC(O)COc2ccccc2Br)n1 (stereo not given) | -6.04% | 23.1 µM [rising, single point] | –
7 | Cc1ccc(N(CC(=O)NCc2ccc(F)cc2)C(=O)CCC(=O)Nc2ccccn2)cc1C | 5.22% | 14.6 µM [rising, partial curve] | –
8 | COc1ccc(CCNC(=O)c2ccc(Cl)cc2Cl)cc1 | 4.16% | 20.6 µM [rising, single point] | –
9 | O=C(CCl)N=c1sccn1Cc1cccc2ccccc12 | -9.76% | – | –
10 | COc1ccccc1CNC(=O)c1cc(-c2ccccc2C)nn1CC1CC(c2cccnc2)=NO1 (stereo not given) | 12.2% | – | 0.731 µM [falling, single point]
11 | CN(c1cccc(NC(=O)c2ccc(Cl)c(S(=O)(=O)N3CCOCC3)c2)c1)S(C)(=O)=O | -14.7% | – | –
12 | CN1C(C(=O)NCCc2cccs2)CC2Cn3c(nc4ccccc43)C21 (stereo not given) | – | 6.51 µM [rising, partial curve, poor fit] | –
13 | CCN(CC)c1ccc(C=C2C(=O)OC3(CCCCC3)OC2=O)cc1 | 1.71% | – | 4.11 µM [rising, partial curve]
14 | COc1cccc(C2=CC(c3ccccc3)n3ncnc3N2)c1 (stereo not given) | -26.6% | 10.3 µM [falling, partial curve, poor fit] | –
15 | COc1ccc(N2C(=O)NC3CC2(C)Oc2ccccc23)cc1OC (stereo not given) | 7.18% | 29.1 µM [rising, single point] | –
16 | CCCCNC(=O)C12CCC(C)(C(=O)C1Br)C2(C)C (stereo not given) | -4.88% | 29.1 µM [falling, single point] | –
17 | Cc1ccc(C2CC(c3cccs3)=NN2C(=O)c2ccco2)o1 (stereo not given) | 6.28% | – | 0.184 µM [rising, full curve, poor fit]
18 | NCc1oc(-c2ccccc2)cc1C(=O)O | 1.92% | 6.51 µM [rising, single point] | –
19 | CC1CCCCC1NC(=O)/C=C/c1nc2ccccc2s1 (stereo not given) | – | 29.1 µM [falling, single point] | –
20 | COc1ccccc1CNC(=O)CSC(=S)N1CCCC1 | -8.11% | 0.206 µM [falling, full curve] | –
21 | O=C(c1ccco1)N(CCC(c1ccccc1)c1ccco1)Cc1ccccc1 (stereo not given) | -7.4% | 0.231 µM [falling, full curve, poor fit] | –

Row | SMILES | cell number change | AC50 [1] | AC50 [2]
22 | COc1ccc(CCNC(=O)c2cc(-c3ccc(C)cc3O)n[nH]2)cc1OC | 13.2% | 2.91 µM [rising, partial curve] | –
23 | COc1ccccc1-n1c(-c2ccccc2)n[nH]c1=S | -13.3% | 1.84 µM [falling, partial curve, poor fit] | –
24 | CCn1ncc(CN2CCC(C(=O)Nc3cccc(-c4cccc(F)c4)c3)CC2)c1C | 19.8% | 6.51 µM [rising, single point] | –
25 | CCCN1CCC(NC(=O)C2CCCCC2C(=O)O)CC1 (stereo not given) | 18.8% | 29.1 µM [rising, single point] | –
26 | FC(F)(Cl)c1nnc2ccc(Sc3ccccn3)nn12 | -17.3% | 5.8 µM [falling, full curve, poor fit] | 0.058 µM [falling, partial curve, poor fit]
27 | CC1(C)CC(N(Cc2ccc(F)cc2)C(=O)c2ccc(F)cc2)CCO1 (stereo not given) | 15.6% | 4.61 µM [rising, single point] | 7.31 µM [rising, single point]
28 | CCOC(=O)C1CCCN(C(=O)c2ccc(OC(C)=O)cc2)C1 (stereo not given) | 10.4% | 0.13 µM [rising, full curve, poor fit] | –
29 | CCN(CC)c1cccc(OC2=NS(=O)(=O)c3ccccc32)c1 | -48.2% | 29.1 µM [falling, single point] | 29.1 µM [falling, single point]
30 | O=c1c(F)cn(C2CCCO2)c(=O)n1Cc1ccccc1Cl (stereo not given) | -2.21% | – | –
31 | O=C(c1ccc2nc[nH]c2c1)N1CCN(c2cccc(Cl)c2)CC1 | -3.24% | – | –
32 | O=C(c1ccncc1)N1CCN(S(=O)(=O)c2ccc(F)cc2)CC1 | 19.7% | 29.1 µM [rising, single point] | –
33 | CCSc1nnc(NC(=O)c2cccc(OCc3c(C)noc3C)c2)s1 | -17.6% | – | –
34 | Cc1ccc(NC(=O)N2CCc3ccccc32)cc1C | 13.4% | – | 0.092 µM [falling, full curve, poor fit]
35 | COc1ccc(C2CC(c3ccccc3)=NN2C(=O)COC(=O)c2nc3nc(C)cc(C)n3n2)cc1 (stereo not given) | – | 4.61 µM [rising, single point] | 5.17 µM [rising, partial curve]
36 | CCN(Cc1ccccc1)C(=O)C1CCN(Cc2sccc2C)CC1 | 17.6% | 8.2 µM [rising, partial curve] | –
37 | CCCCCc1n[nH]c2c1CCCC2 | -16.8% | – | –
38 | COc1ccc(NC(=O)CC2C(=O)N(c3cccc(OC)c3)C(=O)N2C(C)C)cc1 (stereo not given) | 0.934% | – | –
39 | COC(=O)/C=C/CC(C)OS(N)(=O)=O (stereo not given) | 20.1% | – | –
40 | Cc1ccc(S(=O)(=O)Nc2ccc3c(c2)nc(CCN2CCCC2)n3C)cc1 | – | 1.46 µM [rising, partial curve, poor fit] | 6.51 µM [rising, single point]
41 | Cc1ccc(NC(=O)c2cc(-c3ccc4c(c3)OCO4)on2)cc1C | -4.17% | 1.16 µM [rising, single point] | –
42 | COc1cc(OC)c(C2=NOC(C(=O)Nc3ccc4c(c3)OCO4)C2)cc1Cl (stereo not given) | 22.1% | 0.731 µM [rising, single point] | –

Excerpt, entries 14 to 23
Row | SMILES | cell number change | AC50 [1] | AC50 [2]
14 | COc1cccc(C2=CC(c3ccccc3)n3ncnc3N2)c1 (stereo not given) | -26.6% | 10.3 µM [falling, partial curve, poor fit] | –
15 | COc1ccc(N2C(=O)NC3CC2(C)Oc2ccccc23)cc1OC (stereo not given) | 7.18% | 29.1 µM [rising, single point] | –
16 | CCCCNC(=O)C12CCC(C)(C(=O)C1Br)C2(C)C (stereo not given) | -4.88% | 29.1 µM [falling, single point] | –
17 | Cc1ccc(C2CC(c3cccs3)=NN2C(=O)c2ccco2)o1 (stereo not given) | 6.28% | – | 0.184 µM [rising, full curve, poor fit]
18 | NCc1oc(-c2ccccc2)cc1C(=O)O | 1.92% | 6.51 µM [rising, single point] | –
19 | CC1CCCCC1NC(=O)/C=C/c1nc2ccccc2s1 (stereo not given) | – | 29.1 µM [falling, single point] | –
20 | COc1ccccc1CNC(=O)CSC(=S)N1CCCC1 | -8.11% | 0.206 µM [falling, full curve] | –
21 | O=C(c1ccco1)N(CCC(c1ccccc1)c1ccco1)Cc1ccccc1 (stereo not given) | -7.4% | 0.231 µM [falling, full curve, poor fit] | –
22 | COc1ccc(CCNC(=O)c2cc(-c3ccc(C)cc3O)n[nH]2)cc1OC | 13.2% | 2.91 µM [rising, partial curve] | –
23 | COc1ccccc1-n1c(-c2ccccc2)n[nH]c1=S | -13.3% | 1.84 µM [falling, partial curve, poor fit] | –
